Experimental data as given in PubChem BioAssay AID1671190 (National Center for Advancing Translational Sciences (NCATS), 2021).
The whole screen tested about 580,000 compounds, of which about 6,100 (1.1%) were called active. This list was built around the results that the source calls inconclusive (neither active nor inactive); the mix of calls is not that of the screen. Calls follow the shape of the dose curve; as a rule, active = well fitted inhibition curve with a large enough effect; inconclusive = small, poorly fitted or top-dose-only effect, or another doubt; inactive = no such curve, though single readings can be large or run the other way. Where the call is inconclusive, the potency comes from a doubtful curve fit.

By UniProt entry, the sequences of proteins in these tests, tags left out.
UniProt P18054, whole entry, looked up: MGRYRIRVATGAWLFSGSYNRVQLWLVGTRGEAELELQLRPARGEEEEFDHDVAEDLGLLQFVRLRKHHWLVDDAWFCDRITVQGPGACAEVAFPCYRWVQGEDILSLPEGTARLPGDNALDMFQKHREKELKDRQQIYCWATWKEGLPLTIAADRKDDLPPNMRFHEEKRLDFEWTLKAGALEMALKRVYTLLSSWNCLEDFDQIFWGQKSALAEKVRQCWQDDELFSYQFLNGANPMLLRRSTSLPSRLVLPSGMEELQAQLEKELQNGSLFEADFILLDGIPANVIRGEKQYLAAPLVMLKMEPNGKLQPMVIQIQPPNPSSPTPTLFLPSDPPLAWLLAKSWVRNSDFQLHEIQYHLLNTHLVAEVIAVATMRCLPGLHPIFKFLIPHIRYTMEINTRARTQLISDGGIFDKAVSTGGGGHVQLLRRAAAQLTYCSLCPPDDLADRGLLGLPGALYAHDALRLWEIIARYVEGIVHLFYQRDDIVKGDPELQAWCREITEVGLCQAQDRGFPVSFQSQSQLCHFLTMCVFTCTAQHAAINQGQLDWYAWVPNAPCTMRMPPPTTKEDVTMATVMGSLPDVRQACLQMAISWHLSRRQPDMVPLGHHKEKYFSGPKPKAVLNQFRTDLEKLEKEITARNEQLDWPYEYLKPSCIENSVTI

The compounds below were run against Polyunsaturated fatty acid lipoxygenase ALOX12 (Homo sapiens) (UniProt P18054) (assay: Primary qHTS assay for inhibitors of human arachidonate 12S-lipoxygenase (ALOX12): Round 2). Settings: purified 12hLO, xylenol orange hydroperoxide absorbance; activity change, negative = inhibition: at 108 µM (top of the series) unless noted.
Procedure, shortened: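 Purified human 12hLO (150 nM final) in 25 mM Hepes, 0.01% Triton X-100, pH 7.0 was preincubated 15 min at room temperature with compound. Then 40 uM arachidonic acid was added, 30 min. Hydroperoxide was read by Fe-XO absorbance ratio 573/405 nm.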
% is scaled to controls: 0 for no effect and ±100 for the full control effect; potency is read from the fitted curve at half-maximal effect.

For O=C(NC12CC3CC(CC(C3)C1)C2)C1(c2cccc(F)c2)CCC1, which Potency is on record?
The Potency was inconclusive: 35.5 µM [inhibitor, partial curve, poor fit].

Which Potency does the source give for CC(C)CCOCc1nc2sc3c(c2c(=O)[nH]1)CCC(C)C3 (stereo unspecified) here?
The Potency was inconclusive: 39.8 µM [inhibitor, partial curve].

O=C(c1ccccc1)c1ccc(N2CCOCC2)c(NC(=O)c2ccco2)c1 was tested. Which Potency did it give?
Its Potency is inconclusive: 141 µM [inhibitor, single point].

With COc1ccccc1NC(=S)NCCc1ccc(OC)c(OC)c1 as the compound, how does the Potency read?
Its Potency is “inactive”.

Which Potency does the source give for COc1cc(/C=C2\SC(=Nc3ccccc3)N(CCc3c[nH]c4ccccc34)C2=O)ccc1OC(C)C(=O)O (stereo unspecified) here?
Its Potency is inconclusive: 35.5 µM [inhibitor, partial curve].

How did the Potency turn out when C=C[C@@]1(C)CC(=O)[C@@]2(O)[C@@]3(C)[C@@H](O)CCC(C)(C)[C@@H]3[C@H](OC(=O)CCN(C)C)[C@H](OC(C)=O)[C@@]2(C)O1 was run?
The Potency was inconclusive: 17.8 µM [inhibitor, partial curve, poor fit].

With O=C(NCCCN1CCOCC1)c1ccc(Sc2cccc(Cl)c2)c([N+](=O)[O-])c1 as the compound, how does the Potency read?
Its Potency is inconclusive: 70.8 µM [inhibitor, partial curve, poor fit].

Which Potency does the source give for CCNCCC(CCC(C)C)c1ccc2c(c1)OCO2 (stereo unspecified) here?
Its Potency is inconclusive: 1 µM [inhibitor, full curve, poor fit].

How did the Potency turn out when CC1=C(c2ccc(C(C)C)cc2)S(=O)(=O)N=C1N1CCN(c2ccc(F)cc2)CC1 was run?
The Potency was inconclusive: 56.2 µM [inhibitor, partial curve, poor fit].

With Cn1nc(C(=O)Nc2ccc(S(=O)(=O)Nc3ncccn3)cc2)ccc1=O as the compound, how does the Potency read?
The Potency was inconclusive: 79.4 µM [inhibitor, partial curve, poor fit].

How did the Potency turn out when COC(=O)c1sc(NC(=O)C2CCCC2)c(C(=O)OC)c1C was run?
Its Potency is “inactive”.

Which Potency does the source give for Cc1ccc([N+](=O)[O-])cc1NC(=O)CN(C)CCOc1ccccc1 here?
The Potency was inconclusive: 0.355 µM [inhibitor, full curve, poor fit].

For COc1cccc(NC(=O)CC2Nc3ccccc3NC2=O)c1 (stereo unspecified), which Potency is on record?
The Potency was active: 15.8 µM.

Which Potency does the source give for Cc1cc2nc(NC3=NCN(CCO)CN3)nc(C)c2cc1C here?
The Potency was “inactive”.

With C/C(=N\NC(=O)c1c([N+](=O)[O-])c(C)nn1C)c1ccc(NC(=O)C2CCCC2)cc1 as the compound, how does the Potency read?
The Potency was “inactive”.

With COc1ccc(NC(=S)N2CCC(C(=O)c3ccc(C)cc3)CC2)cc1 as the compound, how does the Potency read?
The Potency was inconclusive: 39.8 µM [inhibitor, partial curve, poor fit].

Which Potency does the source give for COc1ccccc1NC(=O)Cn1c(C)ccc(NC(=O)Nc2ccc(C)cc2)c1=O here?
Its Potency is inconclusive: 63.1 µM [inhibitor, partial curve, poor fit].

How did the Potency turn out when COc1ccc(S(=O)(=O)N/N=C\c2ccc3c(c2)OCO3)cc1 was run?
Its Potency is inconclusive: 44.7 µM [inhibitor, partial curve, poor fit].

Which Potency does the source give for O=C(O)c1ccc(/C=C(\c2nc3ccccc3[nH]2)c2nc3ccccc3s2)cc1 here?
Its Potency is “inactive”.

With O=C(CCN1C(=O)c2ccccc2C1=O)N1CCOCC1 as the compound, how does the Potency read?
The Potency was inconclusive: 28.2 µM [inhibitor, single point].

With CCOC(=O)c1ccc2c(c1)C1C=CCC1C(C(=O)OCC)N2 (stereo unspecified) as the compound, how does the Potency read?
Its Potency is inconclusive: 35.5 µM [inhibitor, partial curve, poor fit].

Which Potency does the source give for CN(C)CCN(C(=O)/C=C/c1cccs1)c1nc2ccc(Br)cc2s1 here?
The Potency was “inactive”.

With COc1ccc(C(=O)N2CCc3nn(Cc4ccccc4)c(=O)n3CC2)cc1F as the compound, how does the Potency read?
The Potency was “inactive”.

How did the Potency turn out when CCCCCCCn1c2c(c(=N)c3c1CCC3)CCCC2 was run?
The Potency was inconclusive: 79.4 µM [inhibitor, partial curve, poor fit].

Which Potency does the source give for Cc1cc(C)c(NC(=O)CSc2ncc(CO)n2CC(=O)NC2CC2)c(C)c1 here?
Its Potency is inconclusive: 89.1 µM [inhibitor, single point].

How did the Potency turn out when CC(C)[C@H](NC(=O)c1ccccc1)C(=O)OCC(=O)c1ccc2c(c1)NC(=O)CO2 was run?
Its Potency is inconclusive: 56.2 µM [inhibitor, partial curve, poor fit].

With c1coc(-c2nnc3sc(-c4cccs4)nn23)c1 as the compound, how does the Potency read?
Its Potency is inconclusive: 50.1 µM [inhibitor, partial curve, poor fit].

Which Potency does the source give for COc1ccc(C(=O)CC(C#N)c2ccc3c(c2)OCO3)cc1OC (stereo unspecified) here?
Its Potency is inconclusive: 79.4 µM [inhibitor, single point].

For COc1cc(NC(=O)c2cc3sccc3n2C)cc(OC)c1, which Potency is on record?
Its Potency is inconclusive: 50.1 µM [inhibitor, partial curve, poor fit].

With Oc1c(-c2ccccc2)nc2sc3c(c2c1-c1ccccc1)CCCC3 as the compound, how does the Potency read?
The Potency was inconclusive: 56.2 µM [inhibitor, partial curve, poor fit].

Fc1ccc(COc2cccc(-c3n[nH]c(=S)o3)c2)cc1 was tested. Which Potency did it give?
Its Potency is inconclusive: 56.2 µM [inhibitor, partial curve, poor fit].

With Cc1cc(C)nc(NC(=O)CCSc2ccc(Cl)cc2)n1 as the compound, how does the Potency read?
Its Potency is inconclusive: 28.2 µM [inhibitor, partial curve].

Which Potency does the source give for COCCN1C(=O)CO[C@H]2CN(c3ncccn3)C[C@H]21 here?
Its Potency is active: 50.1 µM.

For CCCCCCC(=O)NN1CCN(C)CC1, which Potency is on record?
The Potency was “inactive”.

Which Potency does the source give for N=C1C(c2ccccc2)=C(O)CN1CCO here?
Its Potency is “inactive”.

How did the Potency turn out when O=C(O)CCNC(=O)C(F)(F)C(F)(F)C(F)(F)C(F)(F)C(F)(F)C(F)(F)F was run?
The Potency was active: 11.2 µM.

For O=C(CCc1ccccc1)Nc1ccc(N2CCOCC2)cc1, which Potency is on record?
Its Potency is inconclusive: 31.6 µM [inhibitor, partial curve, poor fit].

Which Potency does the source give for CCCCN(Cc1cc2ccccc2[nH]c1=O)C(=O)c1cc(OC)c(OC)c(OC)c1 here?
The Potency was “inactive”.

With Cc1ccc(/C=N/n2c(-c3ccncc3)n[nH]c2=S)s1 as the compound, how does the Potency read?
The Potency was inconclusive: 2.51 µM [inhibitor, full curve, poor fit].

CCCCCCSc1cccc(-c2nc3ccc(Cl)cn3c2NCCCC)c1 was tested. Which Potency did it give?
The Potency was inconclusive: 50.1 µM [inhibitor, partial curve, poor fit].

Which Potency does the source give for C[C@@H]1COc2cc(N3CCOCC3)ccc2S(=O)(=O)N1 here?
Its Potency is inconclusive: 50.1 µM [inhibitor, single point].

O=S(=O)(c1ccccc1)N1CCC(O)(CSc2ccc(F)cc2)CC1 was tested. Which Potency did it give?
The Potency was “inactive”.

How did the Potency turn out when COc1ccccc1NC(=O)CSC1=Nc2ccccc2C2=NC(CC(=O)NCCc3ccccc3)C(=O)N12 (stereo unspecified) was run?
The Potency was inconclusive: 158 µM [inhibitor, partial curve, poor fit].

For Cc1nc(C2(NC(=O)CCn3c(=O)oc4ccccc43)CCCCC2)no1, which Potency is on record?
The Potency was inconclusive: 44.7 µM [inhibitor, partial curve, poor fit].

Which Potency does the source give for Cc1cccc(/C(N)=N/OC(=O)c2cccs2)c1 here?
The Potency was “inactive”.

With O=C(O)c1ccc(NC(=O)C2CC=CCC2C(=O)O)cc1 (stereo unspecified) as the compound, how does the Potency read?
Its Potency is inconclusive: 44.7 µM [inhibitor, single point].

CC(=O)Nc1cccc(NC(=O)c2cc3ccccc3o2)c1 was tested. Which Potency did it give?
Its Potency is “inactive”.

For CCCCCNC(=O)C(c1cccc2ccccc12)n1c(=O)c(-c2cc3ccccc3[nH]2)nc2ccccc21 (stereo unspecified), which Potency is on record?
The Potency was inconclusive: 100 µM [inhibitor, single point].

With CC(C)(C)c1ccc(OCCCCCCN2CCNCC2)cc1 as the compound, how does the Potency read?
Its Potency is inconclusive: 35.5 µM [inhibitor, partial curve, poor fit].

For O=C(CSCc1ccccc1Br)Nc1cccc(F)c1, which Potency is on record?
Its Potency is “inactive”.

Which Potency does the source give for Oc1ccc2cccc(O)c2c1 here?
The Potency was inconclusive: 44.7 µM [inhibitor, partial curve, poor fit].

How did the Potency turn out when CCOC(=O)c1c(NC(=O)CSc2nc3ccccc3s2)sc(C)c1C was run?
Its Potency is “inactive”.

Which Potency does the source give for Cc1ccc(NC2=C(N3CCOCC3)C(=O)c3ccccc3C2=O)cc1 here?
The Potency was inconclusive: 22.4 µM [inhibitor, partial curve].

Which Potency does the source give for CCC1(N2CCN(C(=O)c3ccc(N(C)C)cc3)CC2)CCN(C(=O)NC)C1 (stereo unspecified) here?
Its Potency is “inactive”.

How did the Potency turn out when COCCCN1C(=O)C(=O)/C(=C(/O)c2ccc(S(=O)(=O)N3CCCCC3)cc2)C1c1cccc(OC)c1 (stereo unspecified) was run?
Its Potency is inconclusive: 10 µM [inhibitor, full curve, poor fit].

For CC(C)CNC(=O)CN1CCN(c2cccc(Cl)c2)CC1, which Potency is on record?
Its Potency is inconclusive: 0.631 µM [inhibitor, full curve].

O=S1(=O)CC(N2CCCC2)CN1Cc1ccc(F)cc1 (stereo unspecified) was tested. Which Potency did it give?
Its Potency is inconclusive: 100 µM [inhibitor, single point].

How did the Potency turn out when Cn1c(S(=O)(=O)O)nc2ccccc21 was run?
Its Potency is inconclusive: 2.82 µM [inhibitor, full curve, poor fit].

With COc1ccc(CNC(=O)c2nc(-c3nn(-c4ccc(C)cc4)c(=O)n(C)c3=O)no2)cc1 as the compound, how does the Potency read?
The Potency was “inactive”.

Which Potency does the source give for CCOC(=O)C(O)(c1c(C)[nH]c2ccccc12)C(F)(F)F (stereo unspecified) here?
Its Potency is inconclusive: 126 µM [inhibitor, partial curve, poor fit].

For O=C(NC1(C(F)(F)F)C(=O)Nc2c1c(=O)[nH]c(=O)n2CCc1ccccc1)c1ccc(Cl)cc1 (stereo unspecified), which activity change, negative = inhibition is on record?
Its activity change, negative = inhibition is inconclusive: -31.5% [inhibitor].

CCOC(=O)c1ccc(NC(=O)c2c(NC(=O)CCC(=O)O)sc3c2CCCCC3)cc1 was tested. Which Potency did it give?
Its Potency is active: 20 µM.

Cc1ccc(C)c(-c2csc(N)c2C(=O)OC(C)C)c1 was tested. Which Potency did it give?
Its Potency is inconclusive: 35.5 µM [inhibitor, partial curve, poor fit].

Which Potency does the source give for O=C(COc1ccc(Cl)cc1Cl)NC(=S)N1CCCc2ccccc21 here?
The Potency was inconclusive: 22.4 µM [inhibitor, partial curve].

Which Potency does the source give for CN1C[C@@H](NC(=O)C2CC2)C[C@H]1c1nc(-c2ccc3ccccc3c2)no1 here?
The Potency was inconclusive: 79.4 µM [inhibitor, full curve, poor fit].

For CCc1ccc(NC(=O)Cn2c(N3CCc4ccccc4C3)nc(C)cc2=O)cc1, which Potency is on record?
Its Potency is “inactive”.
